This passage reports binding results from publication PMC5675994.

No constants are given. Whether binding was seen depends on the method and setting. Binding seen in cells or lysates may run through a third protein. Some results given as binding are weak or reduced against the parent protein; the word gives no strength. Tags and fused reporters may be left off the sequences shown.

In this assay the target is T1, ∆36Nfs1-His6 (S. cerevisiae) (UniProt P25374).
T1 sequence: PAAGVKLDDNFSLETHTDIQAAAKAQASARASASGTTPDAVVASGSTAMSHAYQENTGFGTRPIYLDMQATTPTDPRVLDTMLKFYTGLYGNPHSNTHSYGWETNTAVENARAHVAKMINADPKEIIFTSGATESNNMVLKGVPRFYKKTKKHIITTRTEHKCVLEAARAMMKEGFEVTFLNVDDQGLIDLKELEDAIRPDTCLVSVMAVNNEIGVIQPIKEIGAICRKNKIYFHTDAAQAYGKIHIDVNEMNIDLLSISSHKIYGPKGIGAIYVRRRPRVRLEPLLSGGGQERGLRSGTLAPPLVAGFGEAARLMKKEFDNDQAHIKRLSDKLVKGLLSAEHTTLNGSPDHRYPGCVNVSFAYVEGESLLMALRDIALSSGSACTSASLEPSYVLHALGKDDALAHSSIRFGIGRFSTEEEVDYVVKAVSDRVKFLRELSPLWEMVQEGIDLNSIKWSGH
Description: pull-down; co-purification: ∆36Nfs1-His6 and Isd11 co-expressed in E. coli from one plasmid, recovered under native conditions on Ni-NTA superflow agarose; elution 50 mM TrisCl pH 7.5, 0.15 M NaCl, 10% glycerol, 400 mM imidazole.

B1: Isd11 (protein, UniProt Q6Q560 1-94)
chain: MPGFTAPTRRQVLSLYKEFIKNANQFNNYNFREYFLSKTRTTFRKNMNQQDPKVLMNLFKEAKNDLGVLKRQSVISQMYTFDRLVVEPLQGRKH
As for B1, the binding entry is “binds”.
